Publication PMC10762035, “Molecular basis of human trace amine-associated receptor 1 activation” (Nature Communications, 2024)
Where two headings read alike, the source gives them in different places. For part of its entries the source gives two or more results. This list holds those alone. There may be further records. The records of an entry differ, and nothing given here explains why; they may come from other doses, times, organisms or constructs than stated.

Sequences of proteins named here, by UniProt entry; tags and fusion partners are left off. A line that says so, or that is headed by a name, gives the form on record, which may keep a tag or linker. Residues count along the entry.
UniProt Q96RJ0, whole entry C5S: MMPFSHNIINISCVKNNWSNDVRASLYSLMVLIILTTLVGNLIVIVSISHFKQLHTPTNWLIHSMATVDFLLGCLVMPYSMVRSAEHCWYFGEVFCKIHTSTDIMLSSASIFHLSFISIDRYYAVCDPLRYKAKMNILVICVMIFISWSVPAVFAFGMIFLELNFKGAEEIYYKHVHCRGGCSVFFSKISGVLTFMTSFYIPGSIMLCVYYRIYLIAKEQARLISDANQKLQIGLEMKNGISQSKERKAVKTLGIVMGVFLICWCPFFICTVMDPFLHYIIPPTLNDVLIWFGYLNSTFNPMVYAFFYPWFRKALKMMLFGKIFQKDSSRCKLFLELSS
UniProt Q96RJ0, whole entry C88S: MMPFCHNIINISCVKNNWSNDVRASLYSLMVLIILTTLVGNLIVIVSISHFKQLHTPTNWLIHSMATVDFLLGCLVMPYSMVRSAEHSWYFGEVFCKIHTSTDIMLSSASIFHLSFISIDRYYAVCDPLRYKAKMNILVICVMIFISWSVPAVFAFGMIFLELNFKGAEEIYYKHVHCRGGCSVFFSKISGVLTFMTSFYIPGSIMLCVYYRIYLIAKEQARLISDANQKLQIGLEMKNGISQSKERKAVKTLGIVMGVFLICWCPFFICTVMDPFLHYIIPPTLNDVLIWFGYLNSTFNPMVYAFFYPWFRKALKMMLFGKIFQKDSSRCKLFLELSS
UniProt Q96RJ0, whole entry V184P: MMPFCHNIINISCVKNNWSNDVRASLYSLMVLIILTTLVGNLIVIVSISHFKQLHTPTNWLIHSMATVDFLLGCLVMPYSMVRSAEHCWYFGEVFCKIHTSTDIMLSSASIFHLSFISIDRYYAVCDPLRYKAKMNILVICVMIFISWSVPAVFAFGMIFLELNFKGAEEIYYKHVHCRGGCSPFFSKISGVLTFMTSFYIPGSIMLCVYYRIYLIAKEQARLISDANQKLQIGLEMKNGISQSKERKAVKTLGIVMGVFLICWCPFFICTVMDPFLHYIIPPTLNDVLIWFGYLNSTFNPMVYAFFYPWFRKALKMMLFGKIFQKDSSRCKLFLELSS
UniProt Q96RJ0, whole entry R83H: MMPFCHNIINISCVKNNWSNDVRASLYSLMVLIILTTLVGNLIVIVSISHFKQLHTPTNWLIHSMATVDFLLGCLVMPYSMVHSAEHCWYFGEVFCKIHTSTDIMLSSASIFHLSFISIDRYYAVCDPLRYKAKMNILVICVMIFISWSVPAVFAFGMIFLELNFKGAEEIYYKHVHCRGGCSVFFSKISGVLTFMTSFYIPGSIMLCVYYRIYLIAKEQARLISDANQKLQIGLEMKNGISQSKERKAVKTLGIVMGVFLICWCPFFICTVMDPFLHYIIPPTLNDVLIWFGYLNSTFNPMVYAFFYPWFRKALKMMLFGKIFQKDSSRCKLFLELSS
UniProt Q96RJ0, whole entry C178S: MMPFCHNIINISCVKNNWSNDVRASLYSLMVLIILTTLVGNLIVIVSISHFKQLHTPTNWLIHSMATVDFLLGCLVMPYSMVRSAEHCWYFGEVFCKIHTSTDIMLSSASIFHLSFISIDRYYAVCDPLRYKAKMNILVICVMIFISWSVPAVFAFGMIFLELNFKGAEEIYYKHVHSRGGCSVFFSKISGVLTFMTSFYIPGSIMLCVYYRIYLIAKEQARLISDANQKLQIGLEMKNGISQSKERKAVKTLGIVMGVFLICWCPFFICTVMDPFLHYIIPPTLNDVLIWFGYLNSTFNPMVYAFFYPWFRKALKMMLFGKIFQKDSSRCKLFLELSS
UniProt Q96RJ0, whole entry T194A: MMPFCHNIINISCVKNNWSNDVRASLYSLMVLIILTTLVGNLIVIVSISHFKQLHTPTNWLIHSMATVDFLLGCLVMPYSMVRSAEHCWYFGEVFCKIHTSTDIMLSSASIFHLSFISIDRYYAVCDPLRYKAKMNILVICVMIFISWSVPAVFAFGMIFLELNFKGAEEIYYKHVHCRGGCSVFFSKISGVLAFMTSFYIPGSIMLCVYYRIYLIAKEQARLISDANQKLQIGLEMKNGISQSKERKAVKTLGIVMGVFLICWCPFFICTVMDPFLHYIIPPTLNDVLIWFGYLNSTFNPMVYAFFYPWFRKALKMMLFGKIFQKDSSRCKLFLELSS
UniProt Q96RJ0, 1-339 with tags or gaps F112W: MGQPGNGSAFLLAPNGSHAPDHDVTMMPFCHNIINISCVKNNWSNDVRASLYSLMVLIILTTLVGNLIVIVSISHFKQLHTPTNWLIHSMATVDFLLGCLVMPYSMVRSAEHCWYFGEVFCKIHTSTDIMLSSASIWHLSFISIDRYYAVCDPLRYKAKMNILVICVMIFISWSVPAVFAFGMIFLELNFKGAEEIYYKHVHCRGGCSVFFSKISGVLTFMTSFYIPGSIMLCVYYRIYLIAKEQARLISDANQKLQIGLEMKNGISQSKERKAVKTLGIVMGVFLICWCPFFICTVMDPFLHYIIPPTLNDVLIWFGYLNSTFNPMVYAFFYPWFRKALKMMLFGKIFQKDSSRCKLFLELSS

How the values were obtained:
hTA1 T194A = hTA1 T194A (Homo sapiens, UniProt Q96RJ0, T194A); conditions: T149A (so in the source) minus WT average
hTA1 C5S = hTA1 C5S (Homo sapiens, UniProt Q96RJ0, C5S); conditions: for C5S - Normalized Luminescence Counts (N=2): log[Compound], single wells
hTA1 V184P = hTA1 V184P (Homo sapiens, UniProt Q96RJ0, V184P); test: GloSensor cAMP accumulation assay, V184P mutant; type: cell-based; conditions: V184P (N=2), β-PEA, log[Agonist]
hTA1 R83H = hTA1 R83H (Homo sapiens, UniProt Q96RJ0, R83H); test: GloSensor cAMP accumulation assay, R83H mutant; type: cell-based; conditions: R83H (N=2), β-PEA, log[Agonist];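 further: cells transiently co-expressing hTA1 and a cAMP GloSensor, luminescence read 30 min after agonist addition at room temperature, concentration–response fitted by non-linear regression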
hTA1 C178S = hTA1 C178S (Homo sapiens, UniProt Q96RJ0, C178S); conditions: C178S (N=2); β-PEA; log[Agonist], M -8.522
hTA1 C88S = hTA1 C88S (Homo sapiens, UniProt Q96RJ0, C88S); conditions: C88S (N=2), β-PEA, log[Agonist]
[1] = target: β2AR-Nterm-hTA1-F112^3.41W (CryoEM Construct) (Homo sapiens, UniProt Q96RJ0, F112W); test: GloSensor cAMP accumulation assay, cryoEM construct; type: cell-based; conditions: Cryo EM Construct minus WT average;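 further: cells transiently co-transfected with the receptor construct and GloSensor cAMP biosensor, luminescence read after 30 min compound exposure at room temperature in the dark as cAMP accumulation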

SMILES | ΔpEC50 values (each mutant value - WT average), Mean (hTA1 T194A) | ΔEmax values (each mutant value - WT average), Mean (hTA1 C5S; hTA1 C5S minus WT average) | C5S - Normalized Luminescence Counts (N=2) (hTA1 C5S; M = -6) | C5S - Normalized Luminescence Counts (N=2) (hTA1 C5S; M = -6.522) | C5S - Normalized Luminescence Counts (N=2) (hTA1 C5S; M = -7) | Normalized Luminescence Counts (hTA1 V184P; M -7) | Normalized Luminescence Counts (hTA1 V184P; M -7.522) | Normalized Luminescence Counts (hTA1 V184P; M -11.522) | Normalized Luminescence Counts (hTA1 R83H; M -6.522) | Normalized Luminescence Counts (hTA1 R83H; M -7) | Normalized Luminescence Counts (hTA1 C178S) | Normalized Luminescence Counts (hTA1 C88S; M -7.522) | Normalized Luminescence Counts (hTA1 C88S; M -8.522) | Normalized Luminescence Counts (hTA1 C88S; M -9) | ΔpEC50 values (each mutant value - WT average), Mean [1] | C5S - Normalized Luminescence Counts (N=2) (hTA1 C5S; M = -7.522) | C5S - Normalized Luminescence Counts (N=2) (hTA1 C5S; M = -8)
NCCc1ccc(Oc2ccc(O)cc2)c(I)c1 [T1AM, 3-iodothyronamine] | 0.2689, 0.4993, 0.06496 | 2.709 and 18.7764 | 40.5464, 42.3753, 47.5908, 28.2691, 20.8813, 32.4118 | 21.7839, 26.0963, 20.5195, 13.0792, 9.282, 19.7765 | 10.1561, 9.569, 8.418, 2.93, 4.518, 5.484 |  |  |  |  |  |  |  |  |  |  |  | 
NCCc1ccccc1 |  |  |  |  |  | 14.2987, 25.9995, 32.4504 | 8.4795, 4.503, 3.727, 12.5114, 6.1339, 9.909 | 1.205, 0.1386, 0.2356, 0.7826, 0.5261, 0.3062 | 27.6972, 12.3991, 13.299, 23.5013, 13.7981 | 4.3, 13.0219, 2.931, 6.424 | 3.333, 3.193, 2.959, 9.783, 5.445, 7.24 | 29.6148, 31.3901, 31.5267, 16.9367, 16.1353, 15.0668 | 6.65, 5.83, 5.466, 3.581, 2.512 | 1.847, 1.688, 2.993, 0.9095 | 0.4598 and 0.8322 | 31.1313, 29.6863, 41.0206, 26.1287, 19.0171, 26.7501 | 14.4685, 15.0781, 12.8655, 14.5982, 6.382, 8.453
